# The list shows only some results of the screen, not a fair sample: it is rich in T/C values a quarter to a half above the control, in often repeated tests (any T/C) and in doses without a T/C. Other doses and runs of a compound stand elsewhere. T/C gives the treated animals as a percentage of the vehicle group. Some doses have a count of surviving animals in place of a T/C: the source holds a T/C of zero for them, seemingly a mark for toxic or unscored doses. Some survivor counts are full or nearly so, which does not show that the dose was tolerated: the source hardly ever lists a survival T/C far under the control, and the zero likely stands for such cases as well. Counts of survivors are from the toxicity check (mostly the fifth day) where no day follows; animals may have died later. Schedule codes are those of the source, taken here to give the interval after Q, in days (D) or hours (H), and the number of doses after X. For survival time, the PubChem record calls one and a half times the control and up active, and a quarter to a half above the control has no call in these data; cut-offs in other NCI protocols can differ. Some entries hold several experiments; their values stand side by side, smallest first. Some schedule codes hold Z or #, which are not explained here. Some T/C values carry the count of animals alive at the toxicity check (mostly the fifth day); where none is given, no animal had died by that day.
# System: L1210 leukemia ip in BDF1 mice, survival T/C
# Experiment: NCI In Vivo Anticancer Drug Screen. Data for tumor model L1210 Leukemia (intraperitoneal) in B6D2F1 (BDF1) mice
# Details: T/C endpoint: mean survival time, higher T/C = longer survival
smiles,measurement,setting,value
COc1cccc2c1C(=O)c1c(O)c3c(c(O)c1C2=O)C[C@@](O)(C(=O)CO)C[C@@H]3OC1CC(N)C(O)C(C)O1 (some centres undefined),T/C,"dose: 0.09 mg/kg/injection, schedule: Q01DX009 (ip), vehicle: saline",130 % of control
same,T/C,"dose: 0.25 mg/kg/injection, schedule: Q01DX004 (ip), vehicle: clinical formulation",132 % of control
same,T/C,"dose: 0.25 mg/kg/injection, schedule: Q01DX004 (ip), vehicle: saline",129 % of control
same,T/C,"dose: 0.25 mg/kg/injection, schedule: Q01DX008 (ip), vehicle: saline",134 % of control [7 of 8 alive]
same,T/C,"dose: 0.25 mg/kg/injection, schedule: Q03HX016 (ip), vehicle: water",146 % of control
same,T/C,"dose: 0.25 mg/kg/injection, schedule: Q03HX024 (ip), vehicle: water",140 % of control
same,T/C,"dose: 0.35 mg/kg/injection, schedule: Q01DX009 (ip), vehicle: saline","118, 125, 137, 158 % of control"
same,T/C,"dose: 0.37 mg/kg/injection, schedule: Q03HX008 (ip), vehicle: saline, evaluated on day 5",105 and 122 % of control
same,T/C,"dose: 0.37 mg/kg/injection, schedule: Q03HX008 (ip), vehicle: saline, evaluated on day 60",105 and 122 % of control
same,T/C,"dose: 0.39 mg/kg/injection, schedule: Q01DX009 (ip), vehicle: water",126 % of control
same,T/C,"dose: 0.5 mg/kg/injection, schedule: Q01DX004 (ip), vehicle: clinical formulation",145 % of control
same,T/C,"dose: 0.5 mg/kg/injection, schedule: Q01DX004 (ip), vehicle: saline",129 % of control
same,T/C,"dose: 0.5 mg/kg/injection, schedule: Q01DX007 (ip), vehicle: water",129 % of control
same,T/C,"dose: 0.5 mg/kg/injection, schedule: Q03HX008 (ip), vehicle: water",129 and 148 % of control
same,T/C,"dose: 0.5 mg/kg/injection, schedule: Q06HX004 (ip), vehicle: water",134 % of control
same,T/C,"dose: 0.53 mg/kg/injection, schedule: Q03HX008 (ip), vehicle: clinical formulation",145 % of control
same,T/C,"dose: 0.65 mg/kg/injection, schedule: Q01DX009 (ip), vehicle: saline",143 % of control
same,T/C,"dose: 0.7 mg/kg/injection, schedule: Q01DX009 (ip), vehicle: saline","114, 133, 137, 148 % of control"
same,T/C,"dose: 0.75 mg/kg/injection, schedule: Q01DX004 (ip), vehicle: saline",140 % of control
same,T/C,"dose: 0.75 mg/kg/injection, schedule: Q03HX008 (ip), vehicle: saline, evaluated on day 5",104 and 144 % of control
same,T/C,"dose: 0.75 mg/kg/injection, schedule: Q03HX008 (ip), vehicle: saline, evaluated on day 60",104 and 144 % of control
same,T/C,"dose: 0.78 mg/kg/injection, schedule: Q01DX009 (ip), vehicle: water",147 % of control
same,T/C,"dose: 0.8 mg/kg/injection, schedule: Q03HX008 (ip), vehicle: clinical formulation",144 % of control
same,T/C,"dose: 1.0 mg/kg/injection, schedule: Q01DX001 (ip), vehicle: saline",125 % of control
same,T/C,"dose: 1.0 mg/kg/injection, schedule: Q01DX003 (ip), vehicle: water",130 % of control
same,T/C,"dose: 1.0 mg/kg/injection, schedule: Q01DX004 (ip), vehicle: saline",143 % of control
same,T/C,"dose: 1.0 mg/kg/injection, schedule: Q01DX008 (ip), vehicle: saline",148 % of control
same,T/C,"dose: 1.0 mg/kg/injection, schedule: Q02DX008 (ip), vehicle: clinical formulation",139 % of control
same,T/C,"dose: 1.0 mg/kg/injection, schedule: Q03HX016 (ip), vehicle: water",143 % of control
same,T/C,"dose: 1.0 mg/kg/injection, schedule: Q06HX004 (ip), vehicle: water",129 % of control
same,T/C,"dose: 1.0 mg/kg/injection, schedule: Q## X Z (ip), vehicle: water",143 % of control
same,T/C,"dose: 1.0 mg/kg/injection, schedule: Q## X Z (sc), vehicle: water",139 % of control
same,T/C,"dose: 1.04 mg/kg/injection, schedule: Q04DX003 (ip), vehicle: saline",139 % of control
same,T/C,"dose: 1.1 mg/kg/injection, schedule: Q04DX002 (ip), vehicle: saline","116, 117, 128, 129 % of control"
same,T/C,"dose: 1.2 mg/kg/injection, schedule: Q01DX004 (ip), vehicle: saline",141 % of control
same,T/C,"dose: 1.2 mg/kg/injection, schedule: Q03HX008 (ip), vehicle: clinical formulation",145 % of control
same,T/C,"dose: 1.25 mg/kg/injection, schedule: Q04DX003 (ip), vehicle: water",129 % of control
same,T/C,"dose: 1.4 mg/kg/injection, schedule: Q01DX009 (ip), vehicle: saline","148, 175, 177, 189 % of control"
same,T/C,"dose: 1.5 mg/kg/injection, schedule: Q01DX001 (ip), vehicle: saline, evaluated on day 5",145 % of control
same,T/C,"dose: 1.5 mg/kg/injection, schedule: Q01DX001 (ip), vehicle: saline, evaluated on day 60",145 % of control
same,T/C,"dose: 1.5 mg/kg/injection, schedule: Q01DX004 (ip), vehicle: saline",140 % of control
same,T/C,"dose: 1.5 mg/kg/injection, schedule: Q01DX015 (ip), vehicle: clinical formulation",132 % of control
same,T/C,"dose: 1.5 mg/kg/injection, schedule: Q02DX008 (ip), vehicle: clinical formulation",139 % of control
same,T/C,"dose: 1.5 mg/kg/injection, schedule: Q03HX008 (ip), vehicle: saline, evaluated on day 5",95 and 119 % of control
same,T/C,"dose: 1.5 mg/kg/injection, schedule: Q03HX008 (ip), vehicle: saline, evaluated on day 60",95 [8 of 10 alive] and 119 % of control
same,T/C,"dose: 1.5 mg/kg/injection, schedule: Q04DX004 (ip), vehicle: clinical formulation",129 % of control
same,T/C,"dose: 1.56 mg/kg/injection, schedule: Q01DX009 (ip), vehicle: water",130 % of control
same,T/C,"dose: 1.6 mg/kg/injection, schedule: Q01DX004 (ip), vehicle: saline",149 % of control
same,T/C,"dose: 1.73 mg/kg/injection, schedule: Q04DX003 (ip), vehicle: saline",141 % of control
same,T/C,"dose: 1.8 mg/kg/injection, schedule: Q01DX004 (ip), vehicle: saline",135 % of control
same,T/C,"dose: 2.0 mg/kg/injection, schedule: Q01DX003 (ip), vehicle: water",138 % of control
same,T/C,"dose: 2.0 mg/kg/injection, schedule: Q01DX004 (ip), vehicle: saline, evaluated on day 30","86, 98, 148, 156 % of control"
same,T/C,"dose: 2.0 mg/kg/injection, schedule: Q01DX004 (ip), vehicle: saline, evaluated on day 60",148 % of control
same,survivor count,"dose: 2.0 mg/kg/injection, schedule: Q03HX016 (ip), vehicle: water",8 of 8

# Source: PubChem BioAssay AID248 (DTP/NCI, 2004)
